Experimental findings from paper PMC2855705 are described below.

Results are given in words; binding and its absence hold for the method and conditions named. For some assays here: Where a sequence is shown, tags or fusion partners need not be part of it.

Assay [1] addresses T1, β-catenin unphosphorylated at serine 37 (S37) and threonine 41 (T41) (Active β-Catenin, ABC) (human (endogenous in SW480)), P35222.
T1 chain: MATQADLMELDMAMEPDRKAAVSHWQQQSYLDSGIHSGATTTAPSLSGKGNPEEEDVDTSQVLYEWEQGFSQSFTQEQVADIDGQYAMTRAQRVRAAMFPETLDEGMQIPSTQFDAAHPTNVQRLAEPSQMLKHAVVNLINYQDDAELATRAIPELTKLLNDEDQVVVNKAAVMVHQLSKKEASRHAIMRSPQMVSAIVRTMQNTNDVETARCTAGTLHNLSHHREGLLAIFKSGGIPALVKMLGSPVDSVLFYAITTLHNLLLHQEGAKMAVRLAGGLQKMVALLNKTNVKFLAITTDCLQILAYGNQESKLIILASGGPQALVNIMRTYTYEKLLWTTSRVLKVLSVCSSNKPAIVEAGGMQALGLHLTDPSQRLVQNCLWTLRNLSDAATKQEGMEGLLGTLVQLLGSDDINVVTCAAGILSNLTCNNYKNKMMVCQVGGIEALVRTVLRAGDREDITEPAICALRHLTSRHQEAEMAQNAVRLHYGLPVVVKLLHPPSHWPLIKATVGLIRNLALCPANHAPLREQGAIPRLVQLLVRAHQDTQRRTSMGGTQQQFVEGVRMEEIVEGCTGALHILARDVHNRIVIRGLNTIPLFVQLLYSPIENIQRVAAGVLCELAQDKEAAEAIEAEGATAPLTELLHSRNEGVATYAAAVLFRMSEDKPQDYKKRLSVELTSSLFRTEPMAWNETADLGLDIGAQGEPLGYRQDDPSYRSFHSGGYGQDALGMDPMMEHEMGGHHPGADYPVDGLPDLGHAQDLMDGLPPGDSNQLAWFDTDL
The assay can be described thus: SEC; detergent-free cytosolic fraction of SW480 cells (control or α-catenin shRNA) on Sephacryl S-300, 30 mM Hepes pH 7.5, 150 mM KCl; fractions TCA precipitated and immunoblotted. The conditions noted are these: remark: other sources report otherwise. On the technique in general: In gel filtration, larger molecules generally elute earlier.

In assay [2] the target is T2, Histidine and 6-myc tagged β-catenin, P35222.
T2 chain: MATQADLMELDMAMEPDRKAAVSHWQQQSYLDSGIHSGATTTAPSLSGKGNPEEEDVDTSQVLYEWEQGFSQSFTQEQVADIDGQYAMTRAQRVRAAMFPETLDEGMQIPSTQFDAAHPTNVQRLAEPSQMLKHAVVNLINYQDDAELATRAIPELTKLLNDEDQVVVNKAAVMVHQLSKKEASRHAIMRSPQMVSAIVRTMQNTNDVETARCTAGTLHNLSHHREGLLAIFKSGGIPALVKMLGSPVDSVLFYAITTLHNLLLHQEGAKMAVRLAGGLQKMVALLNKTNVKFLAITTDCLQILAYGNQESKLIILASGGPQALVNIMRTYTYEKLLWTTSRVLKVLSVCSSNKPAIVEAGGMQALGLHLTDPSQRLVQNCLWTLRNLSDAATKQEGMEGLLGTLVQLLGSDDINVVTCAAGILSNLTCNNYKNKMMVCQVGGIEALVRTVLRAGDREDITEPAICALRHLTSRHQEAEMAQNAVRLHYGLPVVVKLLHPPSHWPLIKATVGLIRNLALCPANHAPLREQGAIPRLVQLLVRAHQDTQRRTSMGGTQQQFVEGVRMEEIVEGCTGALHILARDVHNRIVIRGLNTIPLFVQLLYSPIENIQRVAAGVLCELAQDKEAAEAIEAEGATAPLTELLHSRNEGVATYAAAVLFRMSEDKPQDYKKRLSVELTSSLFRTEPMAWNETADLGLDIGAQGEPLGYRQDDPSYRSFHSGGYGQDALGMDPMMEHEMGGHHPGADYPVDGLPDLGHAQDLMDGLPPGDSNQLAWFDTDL
The assay is described as follows: SEC; ~2 mg purified His/6-myc β-catenin diluted in column equilibration buffer, sizing column; fractions blotted with anti-myc; both purified. The settings on record: remark: other sources report otherwise.

B1: β-catenin unphosphorylated at serine 37 (S37) and threonine 41 (T41) (Active β-Catenin, ABC), P35222 1-781 (protein)
chain: MATQADLMELDMAMEPDRKAAVSHWQQQSYLDSGIHSGATTTAPSLSGKGNPEEEDVDTSQVLYEWEQGFSQSFTQEQVADIDGQYAMTRAQRVRAAMFPETLDEGMQIPSTQFDAAHPTNVQRLAEPSQMLKHAVVNLINYQDDAELATRAIPELTKLLNDEDQVVVNKAAVMVHQLSKKEASRHAIMRSPQMVSAIVRTMQNTNDVETARCTAGTLHNLSHHREGLLAIFKSGGIPALVKMLGSPVDSVLFYAITTLHNLLLHQEGAKMAVRLAGGLQKMVALLNKTNVKFLAITTDCLQILAYGNQESKLIILASGGPQALVNIMRTYTYEKLLWTTSRVLKVLSVCSSNKPAIVEAGGMQALGLHLTDPSQRLVQNCLWTLRNLSDAATKQEGMEGLLGTLVQLLGSDDINVVTCAAGILSNLTCNNYKNKMMVCQVGGIEALVRTVLRAGDREDITEPAICALRHLTSRHQEAEMAQNAVRLHYGLPVVVKLLHPPSHWPLIKATVGLIRNLALCPANHAPLREQGAIPRLVQLLVRAHQDTQRRTSMGGTQQQFVEGVRMEEIVEGCTGALHILARDVHNRIVIRGLNTIPLFVQLLYSPIENIQRVAAGVLCELAQDKEAAEAIEAEGATAPLTELLHSRNEGVATYAAAVLFRMSEDKPQDYKKRLSVELTSSLFRTEPMAWNETADLGLDIGAQGEPLGYRQDDPSYRSFHSGGYGQDALGMDPMMEHEMGGHHPGADYPVDGLPDLGHAQDLMDGLPPGDSNQLAWFDTDL
modifications: here or on the partner: unphosphorylated at S37 and T41 (form recognised by monoclonal antibody 8E7); unphosphorylated at S37 and T41 (form recognised by monoclonal antibody 8E7)
On to B1, for which the binding entry in assay [1] is reported as “no binding”.

B2: Histidine and 6-myc tagged β-catenin, P35222 1-781 (protein)
chain: MATQADLMELDMAMEPDRKAAVSHWQQQSYLDSGIHSGATTTAPSLSGKGNPEEEDVDTSQVLYEWEQGFSQSFTQEQVADIDGQYAMTRAQRVRAAMFPETLDEGMQIPSTQFDAAHPTNVQRLAEPSQMLKHAVVNLINYQDDAELATRAIPELTKLLNDEDQVVVNKAAVMVHQLSKKEASRHAIMRSPQMVSAIVRTMQNTNDVETARCTAGTLHNLSHHREGLLAIFKSGGIPALVKMLGSPVDSVLFYAITTLHNLLLHQEGAKMAVRLAGGLQKMVALLNKTNVKFLAITTDCLQILAYGNQESKLIILASGGPQALVNIMRTYTYEKLLWTTSRVLKVLSVCSSNKPAIVEAGGMQALGLHLTDPSQRLVQNCLWTLRNLSDAATKQEGMEGLLGTLVQLLGSDDINVVTCAAGILSNLTCNNYKNKMMVCQVGGIEALVRTVLRAGDREDITEPAICALRHLTSRHQEAEMAQNAVRLHYGLPVVVKLLHPPSHWPLIKATVGLIRNLALCPANHAPLREQGAIPRLVQLLVRAHQDTQRRTSMGGTQQQFVEGVRMEEIVEGCTGALHILARDVHNRIVIRGLNTIPLFVQLLYSPIENIQRVAAGVLCELAQDKEAAEAIEAEGATAPLTELLHSRNEGVATYAAAVLFRMSEDKPQDYKKRLSVELTSSLFRTEPMAWNETADLGLDIGAQGEPLGYRQDDPSYRSFHSGGYGQDALGMDPMMEHEMGGHHPGADYPVDGLPDLGHAQDLMDGLPPGDSNQLAWFDTDL
Take B2: the binding entry in assay [2] was “no binding”.
